Measurements taken from US20040029100A1, “Rapid screen to identify p-glycoprotein substrates and high affinity modulators” (priority 2000, published 2004).
For part of its entries the source gives two or more results. The list is limited to them. There may be further records. The records of an entry differ for a reason that is not stated; dose, time, organism, isomer or construct need not be as stated for each record.

The chains behind the UniProt entries cited, without tags or fusion partners.
UniProt P21448, whole entry: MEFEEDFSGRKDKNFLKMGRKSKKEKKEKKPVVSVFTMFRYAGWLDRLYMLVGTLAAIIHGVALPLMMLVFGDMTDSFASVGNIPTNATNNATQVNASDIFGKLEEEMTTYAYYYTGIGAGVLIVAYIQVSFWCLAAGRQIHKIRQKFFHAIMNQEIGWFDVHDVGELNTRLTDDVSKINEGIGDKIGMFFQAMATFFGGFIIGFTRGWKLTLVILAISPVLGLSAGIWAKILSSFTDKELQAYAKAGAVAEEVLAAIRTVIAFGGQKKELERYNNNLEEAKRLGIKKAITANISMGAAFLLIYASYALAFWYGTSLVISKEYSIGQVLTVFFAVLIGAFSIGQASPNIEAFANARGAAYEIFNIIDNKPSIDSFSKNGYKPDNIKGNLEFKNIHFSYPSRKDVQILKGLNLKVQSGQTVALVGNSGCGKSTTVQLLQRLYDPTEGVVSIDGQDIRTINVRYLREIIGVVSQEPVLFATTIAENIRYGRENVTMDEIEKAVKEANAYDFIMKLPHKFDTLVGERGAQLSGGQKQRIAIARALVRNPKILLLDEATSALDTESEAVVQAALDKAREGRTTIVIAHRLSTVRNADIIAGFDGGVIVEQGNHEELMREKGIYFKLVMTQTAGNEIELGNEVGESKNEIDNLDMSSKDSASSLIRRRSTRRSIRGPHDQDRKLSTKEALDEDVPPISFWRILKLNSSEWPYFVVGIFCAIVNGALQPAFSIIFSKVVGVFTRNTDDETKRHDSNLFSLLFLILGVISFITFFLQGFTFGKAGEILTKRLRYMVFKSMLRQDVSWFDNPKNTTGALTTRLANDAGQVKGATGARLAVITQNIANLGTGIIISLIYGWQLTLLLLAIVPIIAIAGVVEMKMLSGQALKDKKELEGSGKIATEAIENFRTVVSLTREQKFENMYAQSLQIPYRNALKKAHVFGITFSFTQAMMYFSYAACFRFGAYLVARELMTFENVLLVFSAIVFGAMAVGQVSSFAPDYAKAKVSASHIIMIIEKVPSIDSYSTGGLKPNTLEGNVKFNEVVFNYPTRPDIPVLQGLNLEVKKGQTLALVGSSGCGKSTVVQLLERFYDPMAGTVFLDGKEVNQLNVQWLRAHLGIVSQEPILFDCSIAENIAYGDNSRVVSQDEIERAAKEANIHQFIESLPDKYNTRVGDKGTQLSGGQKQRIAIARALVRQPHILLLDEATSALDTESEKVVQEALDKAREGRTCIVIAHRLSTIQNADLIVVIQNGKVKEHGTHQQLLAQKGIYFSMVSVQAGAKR

Biological target: P-glycoprotein (Pgp) purified from MDR CH^RB30 Chinese hamster ovary cells (Cricetulus griseus, UniProt P21448)

CN(C)c1ccc2c(-c3ccccc3)c3ccc(N(C)C)cc3[o+]c2c1
Kd: 810 nM and 2.7 µM
